US20250163176A1, “MONOCLONAL ANTIBODY AGAINST TROP2 AND USE THEREOF” (INSTITUTE OF MEDICAL BIOTECHNOLOGY, CHINESE ACADEMY OF …, priority 2022, published 2025)
These are yes or no findings as the source states them, for the method shown. Some binding calls cover weakened binding; strength is not graded here.

Tests used:
MDA-MB-231 (human) [1] = target: MDA-MB-231 (human) (UniProt P09758); assay: immunofluorescence on fixed MDA-MB-231 cells, antibody at 10 µg/mL, rhodamine goat anti-mouse IgG
Trop2 antigen [2] = target: T1, Trop2 antigen (human, UniProt P09758 27-274, limits assumed); assay: Biacore SPR, anti-Trop2 antibody amine-coupled to a CM5 chip, Trop2 antigen as analyte
T1 construct: also called human trophoblast cell surface antigen 2; tumor-associated calcium signal transducer 2
T1 sequence (looked up): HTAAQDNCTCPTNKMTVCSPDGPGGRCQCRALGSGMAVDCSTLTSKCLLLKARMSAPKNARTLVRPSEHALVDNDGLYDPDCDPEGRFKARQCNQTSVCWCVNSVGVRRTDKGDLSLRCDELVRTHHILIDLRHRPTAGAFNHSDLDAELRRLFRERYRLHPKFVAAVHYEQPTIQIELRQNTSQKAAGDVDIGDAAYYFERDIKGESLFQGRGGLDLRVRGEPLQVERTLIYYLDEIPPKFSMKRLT

MDA-MB-231 (human) [3] = target: MDA-MB-231 (human) (UniProt P09758); assay: flow cytometry on MDA-MB-231 cells, FITC goat anti-mouse IgG
Trop2 antigen [4] = target: T1, Trop2 antigen; assay: indirect ELISA, dilution series of the antibody (x axis: dilution rate, no concentration)
Trop2 antigen [5] = target: T1, Trop2 antigen; assay: indirect ELISA, Trop2 antigen coated at 0.4, 0.2 and 0.1 µg/ml

Measured: binding

B1: anti-Trop2 monoclonal antibody IMB1636 (antibody, V domains shown)
VH: QVQLQQSGAELVRPGTSVKISCKASGYTFTNYWLGWVKQRPGHGLEWIGNIFPGGGYTNYNEKFKGKAILTADTSSSTAYMQLSSLTSEDSGVYFCAREGVMDYWGQGTTLTVSS
VL: DILLTQSPAILSVSPGERVSFSCRASQNIGTSIHWYQQRTNGFPRLLIKYASESISGIPSRFSGSGSGTDFTLSINSVESEDIADYYCQQSYSWPFTFGSGTKLEIK
notes: also called mouse-derived anti-Trop2 monoclonal antibody; anti-Trop2 antibody
binds: all assays above
